# Experimental data as given in doi:10.1101/2020.07.16.206730.
# By UniProt entry, the sequences of proteins in these tests, tags left out. Where a name states a change or a piece, a line headed by the entry shows the natural chain unless it says otherwise. Chains listed by the source or under a name are the forms on record and can include a tag or linker. Residues count along the entry.
# UniProt Q04695: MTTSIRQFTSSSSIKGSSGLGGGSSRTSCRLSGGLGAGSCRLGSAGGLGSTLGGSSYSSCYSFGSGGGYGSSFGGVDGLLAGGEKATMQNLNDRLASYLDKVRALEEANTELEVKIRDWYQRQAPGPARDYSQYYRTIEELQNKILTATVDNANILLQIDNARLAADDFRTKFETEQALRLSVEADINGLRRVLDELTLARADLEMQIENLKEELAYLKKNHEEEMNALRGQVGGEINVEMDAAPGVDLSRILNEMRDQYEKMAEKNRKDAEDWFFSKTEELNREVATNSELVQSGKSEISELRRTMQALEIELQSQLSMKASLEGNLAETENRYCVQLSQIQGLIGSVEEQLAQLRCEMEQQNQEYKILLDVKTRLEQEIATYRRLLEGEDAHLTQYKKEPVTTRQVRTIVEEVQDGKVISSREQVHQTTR
# lamin A (P02545, residues 1-646): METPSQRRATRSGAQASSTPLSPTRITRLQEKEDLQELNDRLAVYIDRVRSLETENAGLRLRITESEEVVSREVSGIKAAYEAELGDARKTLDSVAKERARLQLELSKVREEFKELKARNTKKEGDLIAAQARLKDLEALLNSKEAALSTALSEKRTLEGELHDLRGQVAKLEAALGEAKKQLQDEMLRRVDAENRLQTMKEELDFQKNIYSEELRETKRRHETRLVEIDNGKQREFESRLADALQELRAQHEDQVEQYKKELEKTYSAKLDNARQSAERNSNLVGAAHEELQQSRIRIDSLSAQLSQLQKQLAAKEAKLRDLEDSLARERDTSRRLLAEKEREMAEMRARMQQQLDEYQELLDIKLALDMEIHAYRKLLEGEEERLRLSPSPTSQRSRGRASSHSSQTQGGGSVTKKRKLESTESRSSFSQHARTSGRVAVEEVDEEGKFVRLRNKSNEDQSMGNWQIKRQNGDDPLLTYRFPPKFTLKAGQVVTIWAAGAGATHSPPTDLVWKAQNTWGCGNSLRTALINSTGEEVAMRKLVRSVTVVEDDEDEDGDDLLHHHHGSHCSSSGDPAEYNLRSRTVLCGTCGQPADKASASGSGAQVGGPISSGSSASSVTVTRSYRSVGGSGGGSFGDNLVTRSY
# lamin C (P02545-2, form named): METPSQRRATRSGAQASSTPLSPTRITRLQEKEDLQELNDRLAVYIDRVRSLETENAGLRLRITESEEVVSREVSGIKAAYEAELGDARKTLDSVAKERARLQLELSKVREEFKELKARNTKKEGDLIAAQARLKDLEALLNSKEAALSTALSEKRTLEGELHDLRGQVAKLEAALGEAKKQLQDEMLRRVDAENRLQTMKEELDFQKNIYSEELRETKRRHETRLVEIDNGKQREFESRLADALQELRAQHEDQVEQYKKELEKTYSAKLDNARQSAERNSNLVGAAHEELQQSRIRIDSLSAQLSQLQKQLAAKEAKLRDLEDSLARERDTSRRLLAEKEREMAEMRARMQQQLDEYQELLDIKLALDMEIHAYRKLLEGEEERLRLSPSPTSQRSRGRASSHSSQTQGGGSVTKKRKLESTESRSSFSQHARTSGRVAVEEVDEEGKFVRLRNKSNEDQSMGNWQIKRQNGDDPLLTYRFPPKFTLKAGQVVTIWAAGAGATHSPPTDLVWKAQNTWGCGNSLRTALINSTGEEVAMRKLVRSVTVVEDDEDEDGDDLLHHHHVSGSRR
# UniProt O14980: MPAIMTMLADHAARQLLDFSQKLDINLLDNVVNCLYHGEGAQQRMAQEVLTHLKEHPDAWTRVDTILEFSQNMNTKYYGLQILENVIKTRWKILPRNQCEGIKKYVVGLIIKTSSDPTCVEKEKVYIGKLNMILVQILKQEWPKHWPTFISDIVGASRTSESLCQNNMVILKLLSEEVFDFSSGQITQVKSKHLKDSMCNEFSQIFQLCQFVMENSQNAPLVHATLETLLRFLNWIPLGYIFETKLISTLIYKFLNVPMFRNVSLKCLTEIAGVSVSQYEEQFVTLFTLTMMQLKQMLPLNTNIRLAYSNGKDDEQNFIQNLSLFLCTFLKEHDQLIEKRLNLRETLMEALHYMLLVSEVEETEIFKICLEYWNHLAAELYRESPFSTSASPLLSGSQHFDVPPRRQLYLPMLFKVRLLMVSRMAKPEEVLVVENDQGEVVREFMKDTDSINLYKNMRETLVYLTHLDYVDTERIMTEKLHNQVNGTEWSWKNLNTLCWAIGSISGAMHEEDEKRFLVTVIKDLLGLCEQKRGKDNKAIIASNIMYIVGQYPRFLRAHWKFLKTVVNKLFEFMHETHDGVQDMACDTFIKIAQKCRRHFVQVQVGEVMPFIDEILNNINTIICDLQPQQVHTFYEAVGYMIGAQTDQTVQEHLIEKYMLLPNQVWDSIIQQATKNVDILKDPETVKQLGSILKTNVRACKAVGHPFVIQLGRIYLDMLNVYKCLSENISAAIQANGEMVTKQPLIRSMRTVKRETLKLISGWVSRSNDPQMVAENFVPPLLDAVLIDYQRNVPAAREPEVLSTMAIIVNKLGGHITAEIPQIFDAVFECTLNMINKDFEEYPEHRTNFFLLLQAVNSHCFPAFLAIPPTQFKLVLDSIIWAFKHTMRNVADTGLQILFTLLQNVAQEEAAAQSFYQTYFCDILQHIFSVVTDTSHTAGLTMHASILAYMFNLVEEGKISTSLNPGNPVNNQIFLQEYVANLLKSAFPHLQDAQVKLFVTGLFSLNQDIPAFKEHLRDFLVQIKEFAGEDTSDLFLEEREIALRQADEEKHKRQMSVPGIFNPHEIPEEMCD
# UniProt Q14974: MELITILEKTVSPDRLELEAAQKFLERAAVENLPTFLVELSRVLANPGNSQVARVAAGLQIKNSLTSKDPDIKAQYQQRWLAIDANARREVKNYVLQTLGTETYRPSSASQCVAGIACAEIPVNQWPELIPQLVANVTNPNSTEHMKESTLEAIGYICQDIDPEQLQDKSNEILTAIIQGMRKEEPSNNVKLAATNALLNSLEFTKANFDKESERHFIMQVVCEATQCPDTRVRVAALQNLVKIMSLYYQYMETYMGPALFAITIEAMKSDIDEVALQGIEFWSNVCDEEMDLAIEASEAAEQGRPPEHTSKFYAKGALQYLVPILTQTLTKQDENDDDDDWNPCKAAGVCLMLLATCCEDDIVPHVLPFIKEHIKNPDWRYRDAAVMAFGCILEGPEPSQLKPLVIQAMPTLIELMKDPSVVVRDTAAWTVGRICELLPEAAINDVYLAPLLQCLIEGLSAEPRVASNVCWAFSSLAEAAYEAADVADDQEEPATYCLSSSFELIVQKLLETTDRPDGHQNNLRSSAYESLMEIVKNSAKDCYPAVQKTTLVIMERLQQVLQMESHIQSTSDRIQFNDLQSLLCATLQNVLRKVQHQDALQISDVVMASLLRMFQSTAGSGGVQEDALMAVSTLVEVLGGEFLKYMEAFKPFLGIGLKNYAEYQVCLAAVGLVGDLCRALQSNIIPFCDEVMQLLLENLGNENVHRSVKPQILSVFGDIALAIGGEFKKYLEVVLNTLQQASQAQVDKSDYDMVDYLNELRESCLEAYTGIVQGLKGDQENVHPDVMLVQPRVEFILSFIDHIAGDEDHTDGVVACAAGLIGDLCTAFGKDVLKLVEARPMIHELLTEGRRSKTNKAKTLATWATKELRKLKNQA
# UniProt P20700: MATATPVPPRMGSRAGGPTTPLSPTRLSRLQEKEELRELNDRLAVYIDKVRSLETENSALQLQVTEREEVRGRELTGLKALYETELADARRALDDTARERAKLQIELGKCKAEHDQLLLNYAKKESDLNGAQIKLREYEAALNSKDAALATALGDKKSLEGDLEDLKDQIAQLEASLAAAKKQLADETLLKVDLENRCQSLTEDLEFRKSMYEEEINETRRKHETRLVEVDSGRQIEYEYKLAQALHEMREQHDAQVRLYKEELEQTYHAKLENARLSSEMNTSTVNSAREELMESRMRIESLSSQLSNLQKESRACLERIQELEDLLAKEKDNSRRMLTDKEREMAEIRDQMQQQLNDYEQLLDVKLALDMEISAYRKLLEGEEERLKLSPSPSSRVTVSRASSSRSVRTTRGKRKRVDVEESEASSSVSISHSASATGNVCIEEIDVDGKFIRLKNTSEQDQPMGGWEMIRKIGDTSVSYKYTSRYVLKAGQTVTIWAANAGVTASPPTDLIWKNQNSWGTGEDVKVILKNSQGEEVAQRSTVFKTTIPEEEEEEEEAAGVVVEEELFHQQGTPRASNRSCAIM
# These are yes or no findings as the source states them, for the method shown. Binding seen in cells or lysates may run through a third protein. Some entries that bind do so weakly or less than the wild type.
# Molecular target: Keratin 17 (human (endogenous in HeLa and A431)) (UniProt Q04695)
# Experiment: co-IP
row,Substance,binding
1,lamin A (from UniProt P02545 1-646),binds
2,lamin C (from UniProt P02545-2 1-572),no binding

# Results, then the substance that gave them:
row,binding,Substance
1,binds,exportin-1 (from UniProt O14980 1-1071)
2,binds,karyopherin β1 (from UniProt Q14974 1-876)
3,binds,lamin B1 (from UniProt P20700 1-586)
